Results deposited as PubChem BioAssay AID1671195 (Yale University, 2021).
The deposit covers about 22,000 reagents; shown is a random part of them. About 1,510 of all reagents (6.9%) count as active. 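Active includes knockdowns raising or lowering LDL uptake; positive z-scores mean more uptake, negative mean less.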 Unmarked entries are inactive.

Test: 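Genes whose knockdown alters LDL uptake in liver cancer cells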 (primary screen)
Cells: human Huh7 hepatoma cells
Reagents: siRNA pool against human genes, 18 nM
Time to read-out: about 2 to 2.5 days of knockdown, then 8 h LDL uptake
Conditions: DiI-labelled LDL at 30 µg/ml for 8 h, in lipoprotein-deficient serum medium
Read-out: 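Per-cell DiI-LDL intensity by automated imaging; well means scaled to the plate median and given as a robust z-score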
Direction: robust z-score: higher = more LDL uptake after knockdown
Hit rule: 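Active when two or more replicates show a robust z-score above 2 or below -2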

target gene	robust z-score, replicate 1	robust z-score, replicate 2	robust z-score, replicate 3
NECTIN4 (nectin cell adhesion molecule 4)	-0.977	-0.946	-0.691
ELMOD2 (ELMO domain containing 2)	-1.09	-1.15	-0.887
UBR1 (ubiquitin protein ligase E3 component n-recognin 1)	0.163	1.33	0.324
RGN (regucalcin)	-0.508	-0.0789	-0.0624
LOC285442 (mitochondrial translation release factor 1 like pseudogene)	0.248	-0.128	0.0745
MAP6D1 (MAP6 domain containing 1)	0.401	-0.622	-0.497
LOC390760 (retired record)	0.329	0.309	0.313
CD1E (CD1e molecule)	-0.897	-0.893	-1.17
KBTBD7 (kelch repeat and BTB domain containing 7)	-0.11	0.226	0.965
CALML3 (calmodulin like 3)	-0.67	-0.448	-0.319
SAXO1 (stabilizer of axonemal microtubules 1)	1.49 (active)	3.09	2.09
TXNDC11 (thioredoxin domain containing 11)	0.567	0.391	0.293
BID (BH3 interacting domain death agonist)	-1.09	-0.927	-1.04

In a second layout: results already given
target gene | robust z-score, replicate 1 | robust z-score, replicate 2 | robust z-score, replicate 3
CD1E (CD1e molecule) | -0.897 | -0.893 | -1.17
KBTBD7 (kelch repeat and BTB domain containing 7) | -0.11 | 0.226 | 0.965
CALML3 (calmodulin like 3) | -0.67 | -0.448 | -0.319
SAXO1 (stabilizer of axonemal microtubules 1) | 1.49 (active) | 3.09 | 2.09

The listing continues.
target gene	robust z-score, replicate 1	robust z-score, replicate 2	robust z-score, replicate 3
FGFR1OP2 (FGFR1 oncogene partner 2)	-1.77	-0.641	-1.08
TBC1D25 (TBC1 domain family member 25)	0.0157	-0.438	-0.791
LOC399789 (retired record)	-0.0232	-0.964	-0.873
LOC401579 (retired record)	-0.292	-1.02	-1.22
TGFBR2 (transforming growth factor beta receptor 2)	0.15	0.595	0.0446
DRC1 (dynein regulatory complex subunit 1)	-0.884	-0.349	-0.261
TCF21 (transcription factor 21)	0.367	-0.725	0.207
SMAD1 (SMAD family member 1)	0.287	0.581	0.426
FGF2 (fibroblast growth factor 2)	3.26 (active)	3.09	1.91
MAS1L (MAS1 proto-oncogene like, G protein-coupled receptor)	-0.958	-0.243	-0.935
C14orf93 (chromosome 14 open reading frame 93)	0.475	0.921	1.22
ASGR1 (asialoglycoprotein receptor 1)	-0.0848	0.143	-0.0313
IL23R (interleukin 23 receptor)	0.262	0.247	0.54
OLA1 (Obg like ATPase 1)	0.352	2.22	0.906
STX17 (syntaxin 17)	-0.186	2.39	-1.03
